{"source": "patent US11618765B2", "about": "“Broad-spectrum antiviral nucleoside derivatives” (priority 2020, dated 2023)", "origin": "cited, not measured here", "system": "human cells in culture", "conditions": "cited from earlier work", "note": "pIC50: −log10 of the molar value. At least one compound was matched to its structure with a doubt left."}
{"compound": "CC(=O)c1cn([C@H]2C[C@H](O)[C@@H](CO)O2)c(=O)[nH]1", "note": "[imidine, 1-(2-deoxy-β-D-ribofuranosyl)-4-acetylimidazolin-2-one]", "values": [{"measurement": "growth inhibition relative to thymidine", "setting": "compared with thymidine", "result": "less inhibitory to the growth of human cells in culture than thymidine"}, {"measurement": "pIC50", "setting": "could not be reached at highest concentration, read-out: IC50-value for inhibition of growth of human cells in culture", "result": "< 3.00"}]}
